Results are given in words; binding and its absence hold for the method and conditions named. In cells and extracts the contact can be indirect. A result given as binding can be weak or reduced; the word gives no strength. Tags and fused reporters may be left off the sequences shown.
Biological target: T1, Fc-sCD146 (human) (UniProt P43121)
T1 sequence: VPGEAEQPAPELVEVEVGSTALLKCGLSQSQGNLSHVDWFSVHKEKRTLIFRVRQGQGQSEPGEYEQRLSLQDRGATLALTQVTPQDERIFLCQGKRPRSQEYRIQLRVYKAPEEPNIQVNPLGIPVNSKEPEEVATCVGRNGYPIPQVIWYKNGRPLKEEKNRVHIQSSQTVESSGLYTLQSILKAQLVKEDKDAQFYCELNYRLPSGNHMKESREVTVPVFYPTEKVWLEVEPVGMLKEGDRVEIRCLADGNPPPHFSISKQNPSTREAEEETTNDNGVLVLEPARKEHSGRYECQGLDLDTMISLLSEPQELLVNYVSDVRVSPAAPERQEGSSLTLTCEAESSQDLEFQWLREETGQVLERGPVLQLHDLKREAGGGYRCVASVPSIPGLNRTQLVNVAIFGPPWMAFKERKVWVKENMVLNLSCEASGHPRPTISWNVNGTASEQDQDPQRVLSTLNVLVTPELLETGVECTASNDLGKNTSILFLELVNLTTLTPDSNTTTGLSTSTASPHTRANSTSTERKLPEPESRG
Test: co-IP; precleared hCMEC/D3 lysate (1 mg total protein; 20 mmol/L Tris-HCl pH 7.4, 150 mmol/L NaCl, 1 mmol/L CaCl2, 2 mmol/L MnCl2, 1.5% Triton X-100) incubated 4 h at 4 °C with human Fc or Fc-sCD146, then Protein G-plus agarose beads overnight at 4 °C; blots with anti-integrin αv, β1 or anti-Fc; only the target purified

- binding: binds
Substance: integrin αvβ1 (human (endogenous in hCMEC/D3)) (receptor)

Reference: article PMC6929609
